Results as given in the supplement of paper PMC10849652.
This is one part of the list.

Amino acid sequences for entries named in this document (tags omitted). A change or cut given only in a name is not applied to a line headed by its entry.
UniProt Q9UPZ3: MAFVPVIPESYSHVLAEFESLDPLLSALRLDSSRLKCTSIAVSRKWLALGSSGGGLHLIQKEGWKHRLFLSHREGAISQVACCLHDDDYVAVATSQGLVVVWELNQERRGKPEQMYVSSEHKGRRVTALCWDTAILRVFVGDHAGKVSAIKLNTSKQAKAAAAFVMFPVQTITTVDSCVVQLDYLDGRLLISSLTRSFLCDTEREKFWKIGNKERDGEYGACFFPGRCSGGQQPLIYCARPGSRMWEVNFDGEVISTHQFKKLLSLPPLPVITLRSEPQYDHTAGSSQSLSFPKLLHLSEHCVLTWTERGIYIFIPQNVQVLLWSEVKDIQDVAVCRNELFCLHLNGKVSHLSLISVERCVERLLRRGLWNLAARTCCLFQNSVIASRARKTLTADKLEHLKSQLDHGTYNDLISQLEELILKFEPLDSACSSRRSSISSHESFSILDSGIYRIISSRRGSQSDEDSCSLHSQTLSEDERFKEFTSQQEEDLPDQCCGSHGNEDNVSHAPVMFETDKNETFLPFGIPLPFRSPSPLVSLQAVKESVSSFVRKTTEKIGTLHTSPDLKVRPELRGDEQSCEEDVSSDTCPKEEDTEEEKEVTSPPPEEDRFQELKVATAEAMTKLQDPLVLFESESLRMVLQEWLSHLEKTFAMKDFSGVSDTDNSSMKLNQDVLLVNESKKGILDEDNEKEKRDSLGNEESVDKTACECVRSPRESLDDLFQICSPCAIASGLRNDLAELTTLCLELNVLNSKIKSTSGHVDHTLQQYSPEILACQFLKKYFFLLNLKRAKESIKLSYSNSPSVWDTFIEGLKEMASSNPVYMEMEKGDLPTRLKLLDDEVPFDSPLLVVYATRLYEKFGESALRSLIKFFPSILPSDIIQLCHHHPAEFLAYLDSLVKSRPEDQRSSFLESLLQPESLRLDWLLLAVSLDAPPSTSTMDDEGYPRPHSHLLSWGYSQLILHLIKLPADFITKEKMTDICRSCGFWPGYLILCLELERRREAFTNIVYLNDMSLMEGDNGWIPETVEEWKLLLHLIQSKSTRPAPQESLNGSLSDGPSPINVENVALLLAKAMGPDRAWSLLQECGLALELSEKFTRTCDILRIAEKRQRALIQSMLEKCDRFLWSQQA
UniProt P54198, whole entry, looked up: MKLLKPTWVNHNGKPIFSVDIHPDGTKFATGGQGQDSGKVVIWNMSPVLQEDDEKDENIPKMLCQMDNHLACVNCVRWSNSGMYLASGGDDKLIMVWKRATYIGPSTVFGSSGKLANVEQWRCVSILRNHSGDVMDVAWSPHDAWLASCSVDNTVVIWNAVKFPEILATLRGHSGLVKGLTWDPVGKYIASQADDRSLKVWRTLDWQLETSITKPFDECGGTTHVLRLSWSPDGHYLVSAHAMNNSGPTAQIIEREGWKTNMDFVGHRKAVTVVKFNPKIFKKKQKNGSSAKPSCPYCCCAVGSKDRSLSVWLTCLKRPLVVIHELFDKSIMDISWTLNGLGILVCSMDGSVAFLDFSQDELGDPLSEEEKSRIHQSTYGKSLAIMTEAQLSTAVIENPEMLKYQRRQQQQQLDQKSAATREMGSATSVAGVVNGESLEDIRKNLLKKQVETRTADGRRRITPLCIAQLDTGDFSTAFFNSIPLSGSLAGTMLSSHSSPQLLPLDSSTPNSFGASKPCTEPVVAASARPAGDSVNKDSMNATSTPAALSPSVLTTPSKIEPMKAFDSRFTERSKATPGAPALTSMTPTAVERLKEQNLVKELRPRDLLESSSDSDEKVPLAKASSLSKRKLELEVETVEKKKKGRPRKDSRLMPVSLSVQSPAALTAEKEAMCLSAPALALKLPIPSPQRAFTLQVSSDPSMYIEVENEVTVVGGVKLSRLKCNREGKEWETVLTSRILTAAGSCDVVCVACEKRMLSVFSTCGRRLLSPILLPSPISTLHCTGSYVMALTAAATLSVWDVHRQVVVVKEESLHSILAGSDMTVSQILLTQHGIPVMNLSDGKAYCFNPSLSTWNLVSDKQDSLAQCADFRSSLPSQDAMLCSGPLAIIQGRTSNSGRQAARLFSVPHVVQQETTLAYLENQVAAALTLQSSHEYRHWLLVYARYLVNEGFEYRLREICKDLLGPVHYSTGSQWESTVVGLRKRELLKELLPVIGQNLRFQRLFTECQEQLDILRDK
UniProt Q6NVY1: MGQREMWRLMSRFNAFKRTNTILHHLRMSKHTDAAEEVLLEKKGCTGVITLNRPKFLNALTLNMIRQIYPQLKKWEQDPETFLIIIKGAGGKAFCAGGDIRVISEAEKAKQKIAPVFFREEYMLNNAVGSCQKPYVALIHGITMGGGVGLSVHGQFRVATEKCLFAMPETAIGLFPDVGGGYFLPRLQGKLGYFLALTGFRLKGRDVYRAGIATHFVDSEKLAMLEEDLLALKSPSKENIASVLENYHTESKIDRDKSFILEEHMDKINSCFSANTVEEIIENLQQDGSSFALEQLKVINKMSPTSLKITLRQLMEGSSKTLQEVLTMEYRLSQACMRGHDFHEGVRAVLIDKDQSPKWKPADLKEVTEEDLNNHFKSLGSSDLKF
UniProt O14979: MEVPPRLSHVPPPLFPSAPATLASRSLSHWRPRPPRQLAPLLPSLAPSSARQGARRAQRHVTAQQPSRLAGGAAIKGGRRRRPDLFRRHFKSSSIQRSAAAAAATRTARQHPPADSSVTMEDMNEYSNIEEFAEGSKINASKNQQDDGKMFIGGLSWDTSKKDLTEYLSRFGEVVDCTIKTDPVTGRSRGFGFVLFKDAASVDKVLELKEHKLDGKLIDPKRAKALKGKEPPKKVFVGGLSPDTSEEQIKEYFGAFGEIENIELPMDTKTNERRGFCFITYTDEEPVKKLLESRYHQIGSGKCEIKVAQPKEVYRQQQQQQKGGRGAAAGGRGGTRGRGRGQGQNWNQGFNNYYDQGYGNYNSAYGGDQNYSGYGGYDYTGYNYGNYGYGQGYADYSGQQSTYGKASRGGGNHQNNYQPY
UniProt Q9BYK8: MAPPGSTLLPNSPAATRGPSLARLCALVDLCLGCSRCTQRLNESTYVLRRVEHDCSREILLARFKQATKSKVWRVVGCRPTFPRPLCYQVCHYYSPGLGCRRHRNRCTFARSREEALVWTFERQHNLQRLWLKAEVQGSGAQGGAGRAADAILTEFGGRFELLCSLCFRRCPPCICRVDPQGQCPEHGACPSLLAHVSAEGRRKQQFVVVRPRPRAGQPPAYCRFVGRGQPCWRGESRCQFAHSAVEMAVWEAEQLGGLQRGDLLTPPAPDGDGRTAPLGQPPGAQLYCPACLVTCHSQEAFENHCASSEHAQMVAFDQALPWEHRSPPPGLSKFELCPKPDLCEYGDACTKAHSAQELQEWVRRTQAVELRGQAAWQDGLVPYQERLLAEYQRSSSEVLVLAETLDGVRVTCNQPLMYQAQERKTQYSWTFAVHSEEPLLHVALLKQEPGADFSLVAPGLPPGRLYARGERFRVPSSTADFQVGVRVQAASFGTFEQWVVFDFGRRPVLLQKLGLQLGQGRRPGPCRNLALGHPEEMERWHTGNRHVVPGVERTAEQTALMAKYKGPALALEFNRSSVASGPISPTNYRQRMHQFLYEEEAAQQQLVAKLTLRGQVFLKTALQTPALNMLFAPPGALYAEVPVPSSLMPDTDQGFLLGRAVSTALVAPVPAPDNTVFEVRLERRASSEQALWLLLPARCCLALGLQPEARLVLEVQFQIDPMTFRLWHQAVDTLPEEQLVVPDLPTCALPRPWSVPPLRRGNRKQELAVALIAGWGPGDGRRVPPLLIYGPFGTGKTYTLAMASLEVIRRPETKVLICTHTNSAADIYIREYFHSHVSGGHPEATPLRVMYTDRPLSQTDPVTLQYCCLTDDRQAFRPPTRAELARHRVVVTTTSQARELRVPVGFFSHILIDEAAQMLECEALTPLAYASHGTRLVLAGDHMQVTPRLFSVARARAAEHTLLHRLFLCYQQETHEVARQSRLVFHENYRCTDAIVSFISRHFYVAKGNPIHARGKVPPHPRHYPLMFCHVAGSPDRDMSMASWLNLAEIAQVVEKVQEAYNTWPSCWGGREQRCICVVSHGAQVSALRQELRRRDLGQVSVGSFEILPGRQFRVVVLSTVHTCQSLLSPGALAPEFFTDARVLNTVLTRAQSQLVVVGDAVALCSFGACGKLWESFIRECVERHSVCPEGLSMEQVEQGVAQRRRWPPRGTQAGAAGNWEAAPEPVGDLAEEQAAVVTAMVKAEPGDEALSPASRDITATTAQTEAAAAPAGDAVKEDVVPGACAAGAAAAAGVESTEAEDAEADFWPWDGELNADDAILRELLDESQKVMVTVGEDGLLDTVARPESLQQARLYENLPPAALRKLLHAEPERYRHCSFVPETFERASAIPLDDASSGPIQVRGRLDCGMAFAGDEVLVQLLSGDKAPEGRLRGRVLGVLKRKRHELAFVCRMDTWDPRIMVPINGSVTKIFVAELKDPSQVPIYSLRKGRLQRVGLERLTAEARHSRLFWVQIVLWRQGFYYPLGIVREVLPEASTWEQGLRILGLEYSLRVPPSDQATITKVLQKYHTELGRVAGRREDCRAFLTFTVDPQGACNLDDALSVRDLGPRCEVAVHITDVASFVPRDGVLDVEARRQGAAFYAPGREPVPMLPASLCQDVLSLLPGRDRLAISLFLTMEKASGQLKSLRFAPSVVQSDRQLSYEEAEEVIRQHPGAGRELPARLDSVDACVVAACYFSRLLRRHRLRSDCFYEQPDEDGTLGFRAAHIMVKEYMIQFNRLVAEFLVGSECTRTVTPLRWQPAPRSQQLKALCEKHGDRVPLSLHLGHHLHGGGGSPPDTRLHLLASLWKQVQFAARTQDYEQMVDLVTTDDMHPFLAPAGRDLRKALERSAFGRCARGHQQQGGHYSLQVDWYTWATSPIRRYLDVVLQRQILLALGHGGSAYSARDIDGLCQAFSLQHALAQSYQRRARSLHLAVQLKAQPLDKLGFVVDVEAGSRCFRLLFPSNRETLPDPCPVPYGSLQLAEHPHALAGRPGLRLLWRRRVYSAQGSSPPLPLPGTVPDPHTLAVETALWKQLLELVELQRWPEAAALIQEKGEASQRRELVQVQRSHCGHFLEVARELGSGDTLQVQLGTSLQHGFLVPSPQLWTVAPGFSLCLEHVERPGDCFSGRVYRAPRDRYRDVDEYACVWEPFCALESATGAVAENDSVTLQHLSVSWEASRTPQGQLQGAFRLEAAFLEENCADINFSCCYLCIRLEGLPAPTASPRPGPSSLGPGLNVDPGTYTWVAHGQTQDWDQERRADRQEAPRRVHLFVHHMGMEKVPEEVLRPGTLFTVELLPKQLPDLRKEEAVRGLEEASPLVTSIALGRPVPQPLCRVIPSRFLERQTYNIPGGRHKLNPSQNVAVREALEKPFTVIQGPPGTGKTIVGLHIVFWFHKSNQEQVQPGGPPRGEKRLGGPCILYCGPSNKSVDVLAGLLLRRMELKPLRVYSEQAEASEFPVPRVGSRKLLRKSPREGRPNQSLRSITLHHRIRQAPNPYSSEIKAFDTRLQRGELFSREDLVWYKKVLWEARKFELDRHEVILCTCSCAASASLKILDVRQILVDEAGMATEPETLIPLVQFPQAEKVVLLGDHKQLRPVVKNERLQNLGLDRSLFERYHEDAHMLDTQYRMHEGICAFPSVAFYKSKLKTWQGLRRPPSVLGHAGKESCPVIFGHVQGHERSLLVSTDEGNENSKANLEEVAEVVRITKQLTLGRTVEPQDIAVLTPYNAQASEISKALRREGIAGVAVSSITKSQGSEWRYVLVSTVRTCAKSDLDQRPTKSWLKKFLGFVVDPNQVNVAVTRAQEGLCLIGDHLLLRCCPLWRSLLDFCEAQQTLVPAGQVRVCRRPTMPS

Experiments:
Experiment in all cases: log2 fold change, soluble protein after heating vs DMSO (PISA); higher = thermal stabilisation; K562 lysate, 10 uM; active = over 0.2 and 3.5 SD of the protein, either way, in both replicates (recomputed)
[1] = compound: C#Cc1cccc(Nc2ncnc3cc(OCCOC)c(OCCOC)cc23)c1 [erlotinib]
Summary of the method: (§1)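 Quantification was by TMTpro 16plex LC-MS/MS with equalised channel sums, applied to the supernatant after 21,000xg for 90 min. Samples were crude K562 extract at 1 mg/mL protein in PBS pH 7.4 with 1 mM MgCl2, treated with 10 μM compound for 30 min, heated for 3 min across 48°C-58°C, pooled and brought to 0.5% NP-40 at 4°C. Values are log-two fold changes in thermal stability relative to solvent controls, from duplicates.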

[2] = compound: C/C(=N\NC(=O)C1=CC(=CC=C1)S(=O)(=O)N2CCOCC2)/C3=C(C=CC(=C3)Cl)O
Summary of the method: as §1

[3] = compound: C1=CC(=CC=C1C2=NC3=C(N2)C=C(C=C3)C(=O)N)OC4=CC=C(C=C4)Cl
Summary of the method: as §1

[4] = compound: C1=CC2=C(C=CC(=C2)/C=C\3/C(=O)NC(=NCC4=CC=CS4)S3)N=C1
Summary of the method: as §1

[5] = compound: C1=CC2=NC=CN=C2C=C1/C=C/3\C(=O)NC(=O)S3
Summary of the method: as §1

[6] = compound: C1=CC=C(C=C1)C2=NC(=C(N2)C3=CC=NC=C3)C4=CC(=C(C=C4)Cl)O
Summary of the method: as §1

[7] = compound: C1=CC=C2C(=C1)C3=NNC4=CC=CC(=C43)C2=O
Summary of the method: as §1

[8] = compound: C1COCCN1CCN2C3=CC=CC=C3N=C2NC(=O)C4=CC(=CC=C4)[N+](=O)[O-] [IRAK-1-4 Inhibitor I]
Summary of the method: as §1

[9] = compound: C1CCN(C1)C(=O)NC2=CC=CC(=C2)NC3=NC=C(C(=N3)NCCC4=CN=CN4)Br
Summary of the method: as §1

[10] = compound: C1CN(CCC1(CC2=CC=C(C=C2)Cl)N)C3=NC=NC4=C3C=CN4
Summary of the method: as §1

Measured: log2 fold change

HPS5 (UniProt Q9UPZ3)
inactive: [1] 0.093 | [2] 1.37 | [3] -0.096 | [4] 0.127 | [5] -0.061 | [6] -0.101 | [7] -0.027 | [8] 0.088

HIRA (UniProt P54198)
inactive: [1] -0.034 | [2] 0.097 | [3] -0.002 | [4] 0.081 | [6] -0.032 | [7] -0.031 | [9] 0.094 | [10] -0.249 | [8] 0.061

HIBCH (UniProt Q6NVY1)
inactive: [1] -0.024 | [2] -0.051 | [3] 0.037 | [4] -0.007 | [5] -0.006 | [6] 0.023 | [7] 0.018 | [9] -0.011 | [10] 0.023 | [8] 0.017

HNRNPDL (UniProt O14979)
inactive: [1] -0.013 | [2] 0.026 | [3] 0.009 | [4] -0.008 | [5] 0.024 | [6] 0.038 | [7] 0.008 | [9] 0.006 | [10] 0.014 | [8] -0.008

HELZ2 (UniProt Q9BYK8)
inactive: [1] 0.086 | [2] -0.171 | [3] -0.31 | [4] 0.106 | [7] 0.293

HSPA4L (UniProt O95757)
inactive: [1] -0.004 | [2] 0.009 | [3] 0.017 | [4] 0.007 | [5] -0.027 | [6] 0.008 | [7] -0.023 | [9] -0.006 | [10] -0.003 | [8] -0.023

HPS3 (UniProt Q969F9)
inactive: [1] -0.028 | [2] 0.016 | [3] -0.006 | [4] -0.127 | [6] -0.063 | [7] 0.048 | [9] 0.123 | [10] -0.379 | [8] 0.184
